Test results as given in the supplement of paper PMC6078165.
The reference is the same well before dosing, and untreated signal decays as well.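 Fibroblast labels denote human fibroblasts, mainly primary ones from uterus (C12385, HUF), lung (H6013), bone (Hs27A), adrenal (HADF) and skin (WS1), plus mammary HMF and breast cancer-associated Hs343T. Cancer cells are basal-like or mesenchymal-like triple-negative breast cancer lines. A hit is a response shift exceeding 3x replicate standard deviation. The tissue of the other fibroblasts is not given here.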

Tested on: MDAMB468
Assay: relative JC-1 red fluorescence (viability) vs pre-drug, coculture with fibroblast (fraction); higher = more viable cancer cells
Method: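 JC-1 labelled TNBC cells cocultured 1:1 (1,500 cells each) with CellTrace Violet stained primary or stromal fibroblasts in 384-well plates in FluoroBrite medium, treated with one of 42 anticancer drugs at 0.1, 1, 10 or 100 uM. JC-1 red fluorescence (mitochondrial integrity in cancer cells only) was read by plate reader every 8 h for 72 h. Values are normalised to each well's pre-drug value. The stock of one drug was tenfold lower, so its dose labels may be too high.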

CC(C)(C#N)c1cc(Cn2cncn2)cc(C(C)(C)C#N)c1 [Anastrozole]
relative JC-1 red fluorescence
Settings	8 h	16 h	24 h	32 h	40 h	48 h	56 h	64 h	72 h
0.1 µM, coculture fibroblast: C12385	0.8541	0.755	0.706	0.644	0.591	0.585	0.545	0.515	0.503
0.1 µM, coculture fibroblast: H6013	0.821	0.802	0.752	0.728	0.693	0.701	0.675	0.665	0.624
0.1 µM, coculture fibroblast: H6019	0.81	0.784	0.741	0.692	0.641	0.625	0.571	0.534	0.507
0.1 µM, coculture fibroblast: H6076	0.925	0.952	0.848	0.815	0.739	0.713	0.668	0.642	0.659
0.1 µM, coculture fibroblast: H6231	0.823	0.929	0.8208	0.81	0.752	0.728	0.677	0.646	0.634
0.1 µM, coculture fibroblast: HADF	0.867	0.817	0.741	0.713	0.655	0.641	0.595	0.5807	0.5424
0.1 µM, coculture fibroblast: HCFa	0.8445	0.8304	0.773	0.738	0.682	0.672	0.628	0.588	0.544
0.1 µM, coculture fibroblast: HCPF	0.8754	0.935	0.8569	0.838	0.77376	0.7424	0.678	0.666	0.644
0.1 µM, coculture fibroblast: HHSteC	0.867	0.836	0.787	0.74	0.692	0.69	0.625	0.596	0.552
0.1 µM, coculture fibroblast: HMF	0.824	0.929	0.835	0.8054	0.728	0.697	0.647	0.628	0.606
0.1 µM, coculture fibroblast: HPFa	0.9446	0.875	0.836	0.779	0.743	0.733	0.656	0.621	0.544
0.1 µM, coculture fibroblast: HUF	0.905	0.824	0.785	0.716	0.664	0.633	0.581	0.557	0.527
0.1 µM, coculture fibroblast: Hs5	0.869	0.949	0.885	0.852	0.783	0.749	0.696	0.658	0.668
0.1 µM, coculture fibroblast: Hs27A	0.858	0.799	0.733	0.728	0.668	0.661	0.617	0.589	0.552
0.1 µM, coculture fibroblast: Hs343T	0.87	0.942	0.84	0.781	0.692	0.664	0.611	0.592	0.564
0.1 µM, coculture fibroblast: WS1	0.817	0.742	0.677	0.613	0.555	0.523	0.4931	0.467	0.461
1 µM, coculture fibroblast: C12385	0.8802	0.829	0.773	0.735	0.7073	0.702	0.663	0.64	0.635
1 µM, coculture fibroblast: H6013	0.905	0.877	0.795	0.79	0.771	0.771	0.734	0.725	0.675
1 µM, coculture fibroblast: H6019	0.8438	0.7764	0.769	0.716	0.682	0.674	0.6312	0.6039	0.577
1 µM, coculture fibroblast: H6076	0.929	0.917	0.866	0.8914	0.8223	0.8204	0.791	0.783	0.848
1 µM, coculture fibroblast: H6231	0.825	0.90723	0.827	0.806	0.752	0.74	0.681	0.65	0.643
1 µM, coculture fibroblast: HADF	0.91	0.837	0.778	0.762	0.699	0.692	0.654	0.635	0.597
1 µM, coculture fibroblast: HCFa	0.895	0.8452	0.8041	0.787	0.737	0.73	0.669	0.636	0.575
1 µM, coculture fibroblast: HCPF	0.86579	0.969	0.8221	0.804	0.7381	0.71	0.659	0.64	0.619
1 µM, coculture fibroblast: HHSteC	0.9236	0.886	0.8333	0.796	0.753	0.745	0.678	0.653	0.591
1 µM, coculture fibroblast: HMF	0.8538	0.88	0.862	0.826	0.761	0.74	0.688	0.6629	0.644
1 µM, coculture fibroblast: HPFa	0.9463	0.909	0.824	0.752	0.692	0.689	0.624	0.583	0.503
1 µM, coculture fibroblast: HUF	0.888	0.793	0.747	0.674	0.623	0.601	0.558	0.536	0.515
1 µM, coculture fibroblast: Hs5	0.805	0.896	0.969	0.948	0.881	0.856	0.826	0.802	0.828
1 µM, coculture fibroblast: Hs27A	0.873	0.815	0.784	0.7706	0.723	0.711	0.671	0.645	0.591
1 µM, coculture fibroblast: Hs343T	0.882	0.948	0.861	0.8477	0.7837	0.7649	0.715	0.7	0.685
1 µM, coculture fibroblast: WS1	0.8629	0.788	0.7038	0.6292	0.6011	0.5725	0.539	0.509	0.5
